Measurements reported in PubChem BioAssay AID1508597 (Cure First, 2020)
Here is one part, drawn at random, of about 2,100 reagents. 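Calls flag viability under 80% in either arm, not effects specific to rucaparib; the reference for percent is not stated.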 Entries without a mark were called inactive. Reagents against one gene are numbered here. Reagent sequences are not shown. The record does not give: the 100% reference.

Purpose: 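Survival screen with siRNA in ovarian cancer cells derived from patients, with or without rucaparib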 (primary screen)
System: human ovarian carcinoma lines grown from tumours: OCI-P5x (papillary serous) and OCI-C5x (clear cell)
Knock-down reagent: siRNA pool against human genes, 1.25 pmol siRNA per well
Timing: 72 h or 96 h, depending on the cell culture
Conditions: rucaparib 20 µM (about IC30) or vehicle, present until read-out
Measurement: 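Luminescent ATP-based viability assay read 72 or 96 h after transfection, depending on culture, given as normalised percent viability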
Scale: viability, normalised: higher = more viable cells remaining
Hit rule: 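a well counts as a hit if its normalised viability is under 80 percent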
Meaning of the calls: active = viability under 80%; inactive = viability 80% or more

With MECOM #1, rucaparib or vehicle Rucaparib, cell line OCI-C5x (clear cell), technical replicate 1, the values are viability, normalised (%) = 48.7 (active).
MECOM #1, rucaparib or vehicle Rucaparib, cell line OCI-C5x (clear cell), technical replicate 2 scored viability, normalised (%) = 51.7 (active).
MECOM #1, rucaparib or vehicle Rucaparib, cell line OCI-C5x (clear cell), technical replicate 3 scored viability, normalised (%) = 54.9 (active).
MECOM #1, rucaparib or vehicle Rucaparib, cell line OCI-P5x (serous), technical replicate 1 gave viability, normalised (%) = 63.5 (active).
MECOM #1, rucaparib or vehicle Rucaparib, cell line OCI-P5x (serous), technical replicate 2 scored viability, normalised (%) = 84.5.
MECOM #1, rucaparib or vehicle Rucaparib, cell line OCI-P5x (serous), technical replicate 3 gave viability, normalised (%) = 85.
MECOM #1, rucaparib or vehicle Vehicle, cell line OCI-C5x (clear cell), technical replicate 1 scored viability, normalised (%) = 53.5 (active).
For MECOM #1, rucaparib or vehicle Vehicle, cell line OCI-C5x (clear cell), technical replicate 2, the entry reads viability, normalised (%) = 51.2 (active).
MECOM #1, rucaparib or vehicle Vehicle, cell line OCI-C5x (clear cell), technical replicate 3 showed viability, normalised (%) = 45 (active).
MECOM #1, rucaparib or vehicle Vehicle, cell line OCI-P5x (serous), technical replicate 1 showed viability, normalised (%) = 81.
With MECOM #1, rucaparib or vehicle Vehicle, cell line OCI-P5x (serous), technical replicate 2, the entry reads viability, normalised (%) = 87.4.
MECOM #1, rucaparib or vehicle Vehicle, cell line OCI-P5x (serous), technical replicate 3 showed viability, normalised (%) = 86.8.
MECOM #2, rucaparib or vehicle Rucaparib, cell line OCI-C5x (clear cell), technical replicate 1 scored viability, normalised (%) = 18 (active).
MECOM #2, rucaparib or vehicle Rucaparib, cell line OCI-C5x (clear cell), technical replicate 2 showed viability, normalised (%) = 28.2 (active).
MECOM #2, rucaparib or vehicle Rucaparib, cell line OCI-C5x (clear cell), technical replicate 3 showed viability, normalised (%) = 26.2 (active).
With MECOM #2, rucaparib or vehicle Rucaparib, cell line OCI-P5x (serous), technical replicate 1, the values are viability, normalised (%) = 54.9 (active).
For MECOM #2, rucaparib or vehicle Rucaparib, cell line OCI-P5x (serous), technical replicate 2, the entry reads viability, normalised (%) = 49.3 (active).
With MECOM #2, rucaparib or vehicle Rucaparib, cell line OCI-P5x (serous), technical replicate 3, the values are viability, normalised (%) = 53.7 (active).
MECOM #2, rucaparib or vehicle Vehicle, cell line OCI-C5x (clear cell), technical replicate 1 scored viability, normalised (%) = 40 (active).
With MECOM #2, rucaparib or vehicle Vehicle, cell line OCI-C5x (clear cell), technical replicate 2, the values are viability, normalised (%) = 45.3 (active).
MECOM #2, rucaparib or vehicle Vehicle, cell line OCI-C5x (clear cell), technical replicate 3 scored viability, normalised (%) = 51.8 (active).
With MECOM #2, rucaparib or vehicle Vehicle, cell line OCI-P5x (serous), technical replicate 1, the entry reads viability, normalised (%) = 53.7 (active).
For MECOM #2, rucaparib or vehicle Vehicle, cell line OCI-P5x (serous), technical replicate 2, the values are viability, normalised (%) = 47.9 (active).
With MECOM #2, rucaparib or vehicle Vehicle, cell line OCI-P5x (serous), technical replicate 3, the values are viability, normalised (%) = 64 (active).

5 entries from above in another layout.
target	reagent no.	rucaparib or vehicle	cell line	technical replicate	viability, normalised (%)
MECOM	1	Rucaparib	OCI-P5x (serous)	3	85
MECOM	1	Vehicle	OCI-C5x (clear cell)	1	53.5 (active)
MECOM	1	Vehicle	OCI-C5x (clear cell)	2	51.2 (active)
MECOM	1	Vehicle	OCI-C5x (clear cell)	3	45 (active)
MECOM	1	Vehicle	OCI-P5x (serous)	1	81

Additional entries follow.
DDX18, rucaparib or vehicle Rucaparib, cell line OCI-C5x (clear cell), technical replicate 1 showed viability, normalised (%) = 53.2 (active).
DDX18, rucaparib or vehicle Rucaparib, cell line OCI-C5x (clear cell), technical replicate 2 scored viability, normalised (%) = 51.6 (active).
With DDX18, rucaparib or vehicle Rucaparib, cell line OCI-C5x (clear cell), technical replicate 3, the entry reads viability, normalised (%) = 42.2 (active).
With DDX18, rucaparib or vehicle Rucaparib, cell line OCI-P5x (serous), technical replicate 1, the entry reads viability, normalised (%) = 56.7 (active).
DDX18, rucaparib or vehicle Rucaparib, cell line OCI-P5x (serous), technical replicate 2 showed viability, normalised (%) = 70.5 (active).
DDX18, rucaparib or vehicle Rucaparib, cell line OCI-P5x (serous), technical replicate 3 gave viability, normalised (%) = 67.9 (active).
For DDX18, rucaparib or vehicle Vehicle, cell line OCI-C5x (clear cell), technical replicate 1, the entry reads viability, normalised (%) = 37.6 (active).
With DDX18, rucaparib or vehicle Vehicle, cell line OCI-C5x (clear cell), technical replicate 2, the entry reads viability, normalised (%) = 52.3 (active).
DDX18, rucaparib or vehicle Vehicle, cell line OCI-C5x (clear cell), technical replicate 3 gave viability, normalised (%) = 55.6 (active).
DDX18, rucaparib or vehicle Vehicle, cell line OCI-P5x (serous), technical replicate 1 gave viability, normalised (%) = 58.5 (active).
With DDX18, rucaparib or vehicle Vehicle, cell line OCI-P5x (serous), technical replicate 2 the deposit lists viability, normalised (%) = 71.5 (active).
With DDX18, rucaparib or vehicle Vehicle, cell line OCI-P5x (serous), technical replicate 3 the deposit lists viability, normalised (%) = 80.3.
